The other results are listed elsewhere or left out.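 The calls were made as follows: active = dose-dependent thermal stabilisation significant by F-test of dose-response against flat model at 10% FDR; inactive = not significant.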
compound: Nc1nc2c(ncn2[C@@H]2O[C@H](COP(=O)(O)OP(=O)(O)OP(=O)(O)O)[C@@H](O)[C@H]2O)c(=O)[nH]1; assay: dose-dependent thermal stabilisation call (2D-TPP, DLPTP, 10% FDR) (binary (1 = stabilised)); higher = stabilised by the compound; details: system: Jurkat gel-filtered lysate; concentration range 1-500 µM

Sequences of proteins named here, by UniProt entry; tags and fusion partners are left off. A change or cut given only in a name is not applied to a line headed by its entry.
UniProt O43719: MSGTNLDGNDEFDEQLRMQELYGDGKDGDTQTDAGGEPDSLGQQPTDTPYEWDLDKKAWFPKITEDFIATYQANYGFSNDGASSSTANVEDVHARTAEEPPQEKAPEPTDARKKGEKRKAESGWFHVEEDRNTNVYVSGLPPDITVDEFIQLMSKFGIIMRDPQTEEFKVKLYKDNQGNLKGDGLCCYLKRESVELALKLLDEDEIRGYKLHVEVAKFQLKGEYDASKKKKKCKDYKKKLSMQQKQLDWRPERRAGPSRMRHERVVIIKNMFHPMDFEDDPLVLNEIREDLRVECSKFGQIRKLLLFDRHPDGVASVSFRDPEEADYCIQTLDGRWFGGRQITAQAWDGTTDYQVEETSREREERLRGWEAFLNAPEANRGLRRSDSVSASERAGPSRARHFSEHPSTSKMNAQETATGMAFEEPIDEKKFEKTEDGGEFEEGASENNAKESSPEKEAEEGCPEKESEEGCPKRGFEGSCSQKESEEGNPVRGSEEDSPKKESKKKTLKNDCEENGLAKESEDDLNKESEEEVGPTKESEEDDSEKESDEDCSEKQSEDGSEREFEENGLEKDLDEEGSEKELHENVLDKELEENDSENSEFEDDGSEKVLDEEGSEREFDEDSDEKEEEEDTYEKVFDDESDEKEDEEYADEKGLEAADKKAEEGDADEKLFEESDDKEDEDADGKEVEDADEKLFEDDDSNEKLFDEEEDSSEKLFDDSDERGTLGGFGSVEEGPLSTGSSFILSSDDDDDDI
UniProt Q96CX2: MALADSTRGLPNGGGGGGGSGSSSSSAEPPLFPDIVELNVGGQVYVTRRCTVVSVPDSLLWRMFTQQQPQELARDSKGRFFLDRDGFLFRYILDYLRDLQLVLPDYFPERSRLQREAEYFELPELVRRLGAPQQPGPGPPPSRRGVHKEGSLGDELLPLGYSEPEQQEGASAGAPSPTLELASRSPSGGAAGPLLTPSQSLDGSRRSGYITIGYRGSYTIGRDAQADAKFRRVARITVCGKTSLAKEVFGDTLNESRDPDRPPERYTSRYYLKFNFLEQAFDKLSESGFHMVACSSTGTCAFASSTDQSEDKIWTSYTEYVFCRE
UniProt O95163: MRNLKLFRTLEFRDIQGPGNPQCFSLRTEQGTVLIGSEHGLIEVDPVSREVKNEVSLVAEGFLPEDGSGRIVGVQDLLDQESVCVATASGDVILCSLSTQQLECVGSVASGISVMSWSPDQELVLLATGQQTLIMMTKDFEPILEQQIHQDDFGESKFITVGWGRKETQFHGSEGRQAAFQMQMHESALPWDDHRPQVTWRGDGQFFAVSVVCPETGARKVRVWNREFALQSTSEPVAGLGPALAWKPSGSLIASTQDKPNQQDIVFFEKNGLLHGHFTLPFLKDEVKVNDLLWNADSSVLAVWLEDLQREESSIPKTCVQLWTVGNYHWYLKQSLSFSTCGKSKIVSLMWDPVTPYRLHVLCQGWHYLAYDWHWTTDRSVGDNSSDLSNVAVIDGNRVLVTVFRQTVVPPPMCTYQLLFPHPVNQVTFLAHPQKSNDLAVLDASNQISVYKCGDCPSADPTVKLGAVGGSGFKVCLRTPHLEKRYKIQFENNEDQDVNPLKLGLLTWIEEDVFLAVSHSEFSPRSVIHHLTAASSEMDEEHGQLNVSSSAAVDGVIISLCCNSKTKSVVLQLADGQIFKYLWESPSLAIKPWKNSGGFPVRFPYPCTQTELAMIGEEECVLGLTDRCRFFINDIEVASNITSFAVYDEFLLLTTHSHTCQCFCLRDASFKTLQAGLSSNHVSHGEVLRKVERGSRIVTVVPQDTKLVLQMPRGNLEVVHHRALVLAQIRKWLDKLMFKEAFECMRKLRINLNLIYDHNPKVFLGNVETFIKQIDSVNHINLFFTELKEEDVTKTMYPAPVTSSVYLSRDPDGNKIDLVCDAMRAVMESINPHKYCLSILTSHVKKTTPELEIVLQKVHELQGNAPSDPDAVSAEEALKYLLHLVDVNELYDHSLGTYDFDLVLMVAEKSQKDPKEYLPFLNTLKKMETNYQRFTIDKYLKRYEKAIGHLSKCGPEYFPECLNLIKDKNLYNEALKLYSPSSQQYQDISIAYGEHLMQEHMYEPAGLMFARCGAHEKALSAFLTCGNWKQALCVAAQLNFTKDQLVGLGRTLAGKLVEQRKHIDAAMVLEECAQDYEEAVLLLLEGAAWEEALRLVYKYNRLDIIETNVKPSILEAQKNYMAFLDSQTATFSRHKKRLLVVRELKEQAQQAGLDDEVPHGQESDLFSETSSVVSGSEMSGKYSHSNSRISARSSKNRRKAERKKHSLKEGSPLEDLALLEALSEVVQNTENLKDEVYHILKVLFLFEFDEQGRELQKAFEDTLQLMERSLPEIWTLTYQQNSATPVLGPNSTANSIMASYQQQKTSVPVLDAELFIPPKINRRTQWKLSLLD
UniProt Q9NSC5: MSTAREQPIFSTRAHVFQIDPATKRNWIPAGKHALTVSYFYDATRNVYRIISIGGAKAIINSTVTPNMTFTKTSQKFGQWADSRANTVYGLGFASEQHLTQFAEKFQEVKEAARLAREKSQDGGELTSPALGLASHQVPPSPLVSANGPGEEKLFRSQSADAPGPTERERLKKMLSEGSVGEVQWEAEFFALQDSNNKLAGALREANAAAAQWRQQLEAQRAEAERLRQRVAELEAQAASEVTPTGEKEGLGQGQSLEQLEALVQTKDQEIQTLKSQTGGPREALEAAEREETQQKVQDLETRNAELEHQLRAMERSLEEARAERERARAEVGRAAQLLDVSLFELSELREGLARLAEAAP
UniProt Q27J81, whole entry: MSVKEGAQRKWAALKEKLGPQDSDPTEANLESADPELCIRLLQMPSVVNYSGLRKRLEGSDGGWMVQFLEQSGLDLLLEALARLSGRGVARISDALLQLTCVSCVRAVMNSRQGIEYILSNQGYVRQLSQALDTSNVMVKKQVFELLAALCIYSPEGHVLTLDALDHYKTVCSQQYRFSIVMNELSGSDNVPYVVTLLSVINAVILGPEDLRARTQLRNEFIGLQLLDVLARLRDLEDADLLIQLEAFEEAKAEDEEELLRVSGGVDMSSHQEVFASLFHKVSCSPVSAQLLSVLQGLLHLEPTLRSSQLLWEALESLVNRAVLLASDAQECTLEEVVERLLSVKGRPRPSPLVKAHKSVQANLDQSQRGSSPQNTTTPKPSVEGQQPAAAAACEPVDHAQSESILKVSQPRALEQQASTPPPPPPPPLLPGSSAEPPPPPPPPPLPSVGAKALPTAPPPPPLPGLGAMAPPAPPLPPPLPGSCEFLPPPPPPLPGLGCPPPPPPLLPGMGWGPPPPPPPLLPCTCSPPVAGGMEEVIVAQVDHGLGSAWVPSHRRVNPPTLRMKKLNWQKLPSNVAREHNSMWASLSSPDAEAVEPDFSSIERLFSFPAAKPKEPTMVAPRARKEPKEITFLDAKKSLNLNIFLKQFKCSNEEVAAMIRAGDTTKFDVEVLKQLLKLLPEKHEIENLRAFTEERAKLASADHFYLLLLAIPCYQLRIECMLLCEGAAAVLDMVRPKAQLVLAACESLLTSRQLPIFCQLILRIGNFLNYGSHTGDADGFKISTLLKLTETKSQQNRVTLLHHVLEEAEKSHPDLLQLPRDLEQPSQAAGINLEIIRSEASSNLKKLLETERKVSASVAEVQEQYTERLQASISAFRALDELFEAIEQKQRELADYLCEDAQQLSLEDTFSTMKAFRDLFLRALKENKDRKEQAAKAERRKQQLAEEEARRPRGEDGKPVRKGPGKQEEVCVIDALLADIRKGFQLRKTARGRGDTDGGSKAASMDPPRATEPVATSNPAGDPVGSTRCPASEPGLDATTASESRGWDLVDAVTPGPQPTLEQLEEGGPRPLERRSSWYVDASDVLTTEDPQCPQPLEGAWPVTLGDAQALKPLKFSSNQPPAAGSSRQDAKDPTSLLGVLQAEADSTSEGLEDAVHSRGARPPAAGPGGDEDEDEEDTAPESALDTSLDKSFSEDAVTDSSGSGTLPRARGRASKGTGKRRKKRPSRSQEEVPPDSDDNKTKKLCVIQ
UniProt P11717, whole entry: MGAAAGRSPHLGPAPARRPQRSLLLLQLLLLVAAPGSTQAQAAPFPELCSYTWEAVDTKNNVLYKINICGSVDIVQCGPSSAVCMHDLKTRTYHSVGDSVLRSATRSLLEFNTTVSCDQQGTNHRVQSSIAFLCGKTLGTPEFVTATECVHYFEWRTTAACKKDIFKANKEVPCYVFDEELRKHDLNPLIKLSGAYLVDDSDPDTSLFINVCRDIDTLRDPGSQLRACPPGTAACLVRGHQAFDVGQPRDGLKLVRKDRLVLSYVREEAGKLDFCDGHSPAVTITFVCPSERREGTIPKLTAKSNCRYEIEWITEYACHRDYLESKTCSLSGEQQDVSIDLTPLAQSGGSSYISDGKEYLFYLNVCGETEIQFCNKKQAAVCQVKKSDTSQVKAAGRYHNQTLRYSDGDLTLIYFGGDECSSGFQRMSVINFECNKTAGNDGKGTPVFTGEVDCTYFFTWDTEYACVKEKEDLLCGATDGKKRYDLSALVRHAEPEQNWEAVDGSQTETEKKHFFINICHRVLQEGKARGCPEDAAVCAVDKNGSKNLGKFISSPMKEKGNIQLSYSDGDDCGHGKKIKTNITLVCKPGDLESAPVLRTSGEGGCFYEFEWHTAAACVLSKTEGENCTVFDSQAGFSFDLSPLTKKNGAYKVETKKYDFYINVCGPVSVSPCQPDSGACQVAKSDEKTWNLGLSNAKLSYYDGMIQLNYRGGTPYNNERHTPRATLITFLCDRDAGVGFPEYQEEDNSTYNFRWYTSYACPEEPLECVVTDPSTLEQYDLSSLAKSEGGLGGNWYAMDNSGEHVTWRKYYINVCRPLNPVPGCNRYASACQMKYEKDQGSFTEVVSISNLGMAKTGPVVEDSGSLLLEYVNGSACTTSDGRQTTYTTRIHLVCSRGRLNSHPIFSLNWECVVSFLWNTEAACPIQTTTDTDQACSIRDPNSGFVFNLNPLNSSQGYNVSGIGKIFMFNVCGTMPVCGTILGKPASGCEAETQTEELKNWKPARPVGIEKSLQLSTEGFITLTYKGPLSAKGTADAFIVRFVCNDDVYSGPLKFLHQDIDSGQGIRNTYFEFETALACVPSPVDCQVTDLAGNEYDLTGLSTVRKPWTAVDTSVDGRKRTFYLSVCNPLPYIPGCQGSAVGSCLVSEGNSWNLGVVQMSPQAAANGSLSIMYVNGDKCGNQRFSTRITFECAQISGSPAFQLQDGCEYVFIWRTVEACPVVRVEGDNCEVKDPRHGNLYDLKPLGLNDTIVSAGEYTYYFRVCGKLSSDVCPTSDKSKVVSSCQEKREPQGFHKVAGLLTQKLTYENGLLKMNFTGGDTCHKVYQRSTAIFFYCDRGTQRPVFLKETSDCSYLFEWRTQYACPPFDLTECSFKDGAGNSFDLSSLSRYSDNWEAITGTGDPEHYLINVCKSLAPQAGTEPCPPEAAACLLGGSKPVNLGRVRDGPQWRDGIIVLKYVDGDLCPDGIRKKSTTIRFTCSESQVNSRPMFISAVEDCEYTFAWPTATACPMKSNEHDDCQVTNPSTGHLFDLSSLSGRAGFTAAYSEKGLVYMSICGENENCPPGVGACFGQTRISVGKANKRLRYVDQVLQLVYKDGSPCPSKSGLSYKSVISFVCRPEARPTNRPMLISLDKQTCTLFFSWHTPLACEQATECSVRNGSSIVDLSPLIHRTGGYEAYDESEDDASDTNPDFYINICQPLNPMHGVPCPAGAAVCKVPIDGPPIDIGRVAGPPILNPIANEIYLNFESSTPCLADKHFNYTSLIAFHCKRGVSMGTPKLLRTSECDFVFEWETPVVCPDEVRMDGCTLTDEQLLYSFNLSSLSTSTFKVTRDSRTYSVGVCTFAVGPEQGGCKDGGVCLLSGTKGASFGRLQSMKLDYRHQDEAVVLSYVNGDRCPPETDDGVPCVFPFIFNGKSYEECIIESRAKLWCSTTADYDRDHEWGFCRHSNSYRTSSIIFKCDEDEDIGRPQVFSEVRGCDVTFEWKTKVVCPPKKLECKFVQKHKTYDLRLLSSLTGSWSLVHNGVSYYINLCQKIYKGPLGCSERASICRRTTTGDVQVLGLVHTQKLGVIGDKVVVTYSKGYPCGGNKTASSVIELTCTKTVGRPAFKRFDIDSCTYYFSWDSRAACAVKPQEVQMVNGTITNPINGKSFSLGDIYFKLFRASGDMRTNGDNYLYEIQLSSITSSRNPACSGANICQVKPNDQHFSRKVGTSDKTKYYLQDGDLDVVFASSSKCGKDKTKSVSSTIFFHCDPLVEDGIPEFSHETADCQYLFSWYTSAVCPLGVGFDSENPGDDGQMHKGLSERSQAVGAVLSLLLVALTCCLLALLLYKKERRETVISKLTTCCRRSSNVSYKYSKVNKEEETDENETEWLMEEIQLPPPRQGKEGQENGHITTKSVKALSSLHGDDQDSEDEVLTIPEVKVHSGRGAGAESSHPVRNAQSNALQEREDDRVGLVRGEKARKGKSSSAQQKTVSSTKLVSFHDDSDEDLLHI

| Target | dose-dependent thermal stabilisation call |
| --- | --- |
| LNX2 (UniProt Q8N448) | inactive: 0 |
| KIF2A (UniProt O00139) | active: 1 |
| LMTK2 (UniProt Q8IWU2) | inactive: 0 |
| KLC1 (UniProt Q07866) | active: 1 |
| ISCU (UniProt Q9H1K1) | inactive: 0 |
| KDELC1 (UniProt Q6UW63) | inactive: 0 |
| IWS1 (UniProt Q96ST2) | inactive: 0 |
| KTN1 (UniProt Q86UP2) | inactive: 0 |
| IFT27 (UniProt Q9BW83) | active: 1 |
| HSPB1 (UniProt P04792) | inactive: 0 |
| IREB2 (UniProt P48200) | inactive: 0 |
| INPP5B (UniProt P32019) | active: 1 |
| ILKAP (UniProt Q9H0C8) | inactive: 0 |
| HTATSF1 (UniProt O43719) | inactive: 0 |
| KDM8 (UniProt Q8N371) | inactive: 0 |
| KLC4 (UniProt Q9NSK0) | active: 1 |
| IPCEF1 (UniProt Q8WWN9) | inactive: 0 |
| KCTD12 (UniProt Q96CX2) | inactive: 0 |

Shown as tab-separated lines: entries from further up.
Target	dose-dependent thermal stabilisation call
IREB2 (UniProt P48200)	inactive: 0
INPP5B (UniProt P32019)	active: 1

(continued)

| Target | dose-dependent thermal stabilisation call |
| --- | --- |
| ITPA (UniProt Q9BY32) | inactive: 0 |
| KIF3A (UniProt Q9Y496) | inactive: 0 |
| IKBKAP (UniProt O95163) | inactive: 0 |
| IMPA2 (UniProt O14732) | inactive: 0 |
| HSPA8 (UniProt P11142) | inactive: 0 |
| HOMER3 (UniProt Q9NSC5) | inactive: 0 |
| JAKMIP1 (UniProt Q96N16) | inactive: 0 |
| KDM4A (UniProt O75164) | inactive: 0 |
| HNRNPUL1 (UniProt Q9BUJ2) | inactive: 0 |
| INF2 (UniProt Q27J81) | inactive: 0 |
| HUWE1 (UniProt Q7Z6Z7) | inactive: 0 |
| LRCH1 (UniProt Q9Y2L9) | inactive: 0 |
| ILF3 (UniProt Q12906) | active: 1 |
| ING4 (UniProt Q9UNL4) | inactive: 0 |
| IGF2R (UniProt P11717) | inactive: 0 |
| KLF12 (UniProt Q9Y4X4) | inactive: 0 |
| KBTBD6 (UniProt Q86V97) | inactive: 0 |
| LNP (UniProt Q9C0E8) | inactive: 0 |

Reference: the supplement of paper PMC7666118
